From article PMC4627809
No constants are given. Whether binding was seen depends on the method and setting. For some of these results: Binding seen in cells or lysates may run through a third protein. Some results given as binding are weak or reduced against the parent protein; the word gives no strength.

The chains behind the UniProt entries cited, without tags or fusion partners. Where a name states a change or a piece, a line headed by the entry shows the natural chain unless it says otherwise. Residues count along the entry.
UniProt Q00613: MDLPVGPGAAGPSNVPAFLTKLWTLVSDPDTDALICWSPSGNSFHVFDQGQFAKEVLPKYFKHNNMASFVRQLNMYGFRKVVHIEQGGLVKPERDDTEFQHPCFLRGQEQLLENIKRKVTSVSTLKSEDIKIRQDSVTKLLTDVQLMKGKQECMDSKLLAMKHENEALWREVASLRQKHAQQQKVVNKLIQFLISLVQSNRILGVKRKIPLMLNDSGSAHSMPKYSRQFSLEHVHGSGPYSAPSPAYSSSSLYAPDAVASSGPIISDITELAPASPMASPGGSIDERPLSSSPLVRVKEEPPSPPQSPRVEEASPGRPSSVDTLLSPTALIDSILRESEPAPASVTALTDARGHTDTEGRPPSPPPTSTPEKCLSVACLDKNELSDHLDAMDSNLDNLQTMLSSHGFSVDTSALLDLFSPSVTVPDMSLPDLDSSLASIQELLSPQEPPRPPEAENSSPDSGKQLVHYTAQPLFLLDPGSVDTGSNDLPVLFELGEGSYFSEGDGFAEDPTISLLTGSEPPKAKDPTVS
UniProt P08581: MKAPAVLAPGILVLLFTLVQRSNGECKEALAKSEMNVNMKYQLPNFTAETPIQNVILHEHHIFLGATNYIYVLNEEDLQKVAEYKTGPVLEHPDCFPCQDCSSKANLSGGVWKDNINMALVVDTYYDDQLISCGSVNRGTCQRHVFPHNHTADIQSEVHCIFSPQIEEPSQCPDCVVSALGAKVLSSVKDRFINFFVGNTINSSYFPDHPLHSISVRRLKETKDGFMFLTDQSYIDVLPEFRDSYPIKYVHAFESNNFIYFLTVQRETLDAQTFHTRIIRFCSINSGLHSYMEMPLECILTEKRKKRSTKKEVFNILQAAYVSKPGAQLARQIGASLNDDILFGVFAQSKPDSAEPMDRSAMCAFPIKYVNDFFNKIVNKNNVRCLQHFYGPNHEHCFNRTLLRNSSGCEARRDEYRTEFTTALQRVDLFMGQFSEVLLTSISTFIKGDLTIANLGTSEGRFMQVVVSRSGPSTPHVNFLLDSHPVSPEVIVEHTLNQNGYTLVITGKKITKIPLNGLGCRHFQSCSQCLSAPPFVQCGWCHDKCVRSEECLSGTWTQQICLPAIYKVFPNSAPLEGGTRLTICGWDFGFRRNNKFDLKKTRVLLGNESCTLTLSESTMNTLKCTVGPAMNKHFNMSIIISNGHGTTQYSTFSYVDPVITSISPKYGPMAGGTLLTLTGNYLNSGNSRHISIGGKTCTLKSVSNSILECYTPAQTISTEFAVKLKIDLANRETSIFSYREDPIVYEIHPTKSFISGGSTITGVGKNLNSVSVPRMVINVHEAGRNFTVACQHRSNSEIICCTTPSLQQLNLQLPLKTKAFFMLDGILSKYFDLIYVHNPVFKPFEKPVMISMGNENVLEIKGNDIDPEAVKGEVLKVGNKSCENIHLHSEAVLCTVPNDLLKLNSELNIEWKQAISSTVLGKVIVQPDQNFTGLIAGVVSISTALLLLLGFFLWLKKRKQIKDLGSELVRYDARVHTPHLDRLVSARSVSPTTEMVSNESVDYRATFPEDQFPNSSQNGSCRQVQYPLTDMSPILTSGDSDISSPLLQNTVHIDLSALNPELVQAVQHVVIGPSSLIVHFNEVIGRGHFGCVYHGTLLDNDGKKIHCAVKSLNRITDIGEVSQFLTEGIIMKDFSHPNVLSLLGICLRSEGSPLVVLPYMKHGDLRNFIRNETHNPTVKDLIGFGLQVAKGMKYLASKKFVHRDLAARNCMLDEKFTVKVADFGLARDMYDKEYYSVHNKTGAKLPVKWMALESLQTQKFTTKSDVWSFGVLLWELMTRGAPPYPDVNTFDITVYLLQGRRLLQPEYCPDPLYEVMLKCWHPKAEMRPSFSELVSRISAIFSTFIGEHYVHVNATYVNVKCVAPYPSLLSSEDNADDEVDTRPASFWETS
NL-MET: residues 933-1390 of P08581

Legend:
FLAG-HSP90β E42A (human) = FLAG-HSP90β E42A (human) (UniProt P08238); assay: co-IP; HEK293 co-transfected with FLAG-HSP90 construct and client for 18 h; lysis in TGNET (50 mM Tris HCl pH 7.5, 5% glycerol, 100 mM NaCl, 2 mM EDTA, 0.5% Triton X-100); 700 μg lysate on anti-FLAG beads 2 h at 4°C; western blot for the client
[1] = target: FLAG-HSP90β R392A (human) (UniProt P08238); assay: as above
[2] = target: FLAG-HSP90β wild type (human) (UniProt P08238); assay: as above
FLAG-HSP90α D93A (human) = FLAG-HSP90α D93A (human) (UniProt P07900); assay: as above
FLAG-HSP90α E47A (human) = FLAG-HSP90α E47A (human) (UniProt P07900); assay: as above
[3] = target: FLAG-HSP90α IL218/20AA (human) (UniProt P07900); assay: as above
[4] = target: FLAG-HSP90α R400A (human) (UniProt P07900); assay: as above
[5] = target: FLAG-HSP90α wild type (human) (UniProt P07900); assay: as above
FLAG-HSP90β D88A (human) = FLAG-HSP90β D88A (human) (UniProt P08238); assay: as above
[6] = target: FLAG-HSP90β IL213/5AA (human) (UniProt P08238); assay: as above
[7] = target: FLAG-HSP90β wild type (human) (UniProt P08238); assay: LUMIER; HEK293 in 96-well plates co-transfected with NanoLuc-client and 3XFLAG-HSP90α or β; TGNET lysate on anti-FLAG antibody-coated plate 2 h at 4°C; NanoLuc read-out divided by anti-FLAG-HRP read-out = relative interaction strength
[8] = target: FLAG-HSP90α wild type (human) (UniProt P07900); assay: as above

| binding (FLAG-HSP90β E42A (human)) | binding [1] | binding [2] | binding (FLAG-HSP90α D93A (human)) | binding (FLAG-HSP90α E47A (human)) | binding [3] | binding [4] | binding [5] | binding (FLAG-HSP90β D88A (human)) | binding [6] | binding [7] | binding [8] | Substance |
| --- | --- | --- | --- | --- | --- | --- | --- | --- | --- | --- | --- | --- |
| binds | binds weakly | binds weakly |  |  |  |  |  | binds weakly | binds weakly |  |  | HA-HSF1 (from UniProt Q00613 1-529) |
| binds | binds | binds | binds | binds | binds | binds | binds | binds | binds |  |  | HA-KEAP1 (from UniProt Q14145 1-624) |
|  |  |  |  |  |  |  |  |  |  | binds |  | NL-ERBB2 (from UniProt P04626 636-1255) (domain or fragment) |
|  |  |  |  |  |  |  |  |  |  | binds |  | NL-HIF1α (from UniProt Q16665 1-826) |
|  |  |  |  |  |  |  |  |  |  | binds |  | NL-KEAP1 (from UniProt Q14145 1-624) |

The remaining lines, values behind:

| Substance | binding (FLAG-HSP90β E42A (human)) | binding [1] | binding [2] | binding (FLAG-HSP90α D93A (human)) | binding (FLAG-HSP90α E47A (human)) | binding [3] | binding [4] | binding [5] | binding (FLAG-HSP90β D88A (human)) | binding [6] | binding [7] | binding [8] |
| --- | --- | --- | --- | --- | --- | --- | --- | --- | --- | --- | --- | --- |
| ERBB2 (from UniProt P04626 23-1255) | binds | binds | binds |  |  |  |  |  |  |  |  |  |
| HA-HIF1α (from UniProt Q16665 1-826) | binds | binds weakly | binds weakly | binds | binds | binds | binds weakly | binds weakly | binds | no binding |  |  |
| MET (from UniProt P08581 25-1390) | binds | binds | binds | binds | binds | binds | binds | binds | binds | binds |  |  |
| NL-MET (from UniProt P08581-2 951-1408) (domain or fragment) |  |  |  |  |  |  |  |  |  |  | binds | binds |
